For test [1], the target named is T1, recombinant mouse CD69, His-tagged extracellular domain (mouse) (UniProt P37217).
T1 sequence: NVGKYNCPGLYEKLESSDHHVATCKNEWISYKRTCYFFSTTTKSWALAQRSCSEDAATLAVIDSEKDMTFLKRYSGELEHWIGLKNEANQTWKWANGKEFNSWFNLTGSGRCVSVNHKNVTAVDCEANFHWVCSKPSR
Nature of the test: quartz crystal microbalance with dissipation (QCM-D); His-tagged CD69 extracellular domain (250 nM) anchored on a DOPC/DGS-Ni-NTA (96:4) supported lipid bilayer on the sensor; S100 proteins (1 µg mL^-1) perfused; 20 °C; HBS (10 mM HEPES, 150 mM NaCl, pH 7.4) with 250 µM CaCl2; imidazole at the end; both purified.

For test [2], the target named is T2, S100A8/S100A9-tetramer (murine) (murine, UniProt P27005 1-89; P31725 1-113).
T2 chain 1: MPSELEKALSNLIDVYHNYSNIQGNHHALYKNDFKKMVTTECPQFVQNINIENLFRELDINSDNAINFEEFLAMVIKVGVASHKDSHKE
T2 chain 2: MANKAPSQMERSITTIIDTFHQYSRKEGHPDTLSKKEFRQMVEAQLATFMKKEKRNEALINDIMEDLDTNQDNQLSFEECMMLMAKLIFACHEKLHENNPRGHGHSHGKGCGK
The test is described as follows: ELISA; titration ELISA: 10 nM S100A8/S100A9-tetramer coated (HBS plus 250 µM CaCl2); His-tagged CD69 added at increasing concentrations for 1 h; detected with anti-His antibody; non-linear regression, 1:1 model of one tetramer binding one CD69-dimer; both purified.

Substitutions are numbered along the chain they refer to. Names may count otherwise. No constants are given. Whether binding was seen depends on the method and setting. Some results given as binding are weak or reduced against the parent protein; the word gives no strength. Where a sequence is shown, tags or fusion partners need not be part of it.

B1: S100A8/S100A9-tetramer (murine) (complex, UniProt P27005 1-89; P31725 1-113)
chain 1: T2 chain 1
chain 2: T2 chain 2
In the case of B1, in test [1], the binding entry is given as “binds”.

B2: S100A8/S100A9-N70A-heterodimer (murine) (complex, UniProt P27005 1-89; P31725 1-113)
chain 1: T2 chain 1
chain 2: T2 chain 2 with N70A
As to B2, in test [1], the binding result was “no binding (tested: 1 µg mL^-1)”.

B3: recombinant mouse CD69, His-tagged extracellular domain (domain or fragment)
chain: T1 sequence
In the case of B3, in test [2], the binding entry is recorded as “binds”.

(Values after publication PMC9798971, “Alarming and Calming: Opposing Roles of S100A8/S100A9 Dimers and Tetramers on Monocytes” (Advanced Science, 2022).)
